Assay results published in paper doi:10.1101/2021.11.09.467869 (bioRxiv, 2021).
Results are given in words; binding and its absence hold for the method and conditions named. Some binding calls cover weakened binding; strength is not graded here.

Target: RBA1 (residues 1-363) (Arabidopsis (accession Ag-0)) (UniProt F4HT77)
Assay: SEC + other: negative-staining EM

binding: binds
B1: RBA1 (residues 1-363) (protein, UniProt F4HT77 1-363)
chain: MTSVSPRYRNVPVPKVFLSFRGEEIRHGFISHLADALERYGIMFIIDKDEQRGNDLTSLLLRIKESKVALVIFSSRFAESRFCMDEIVKMKECVDERKLLVIPIFYKVRARDVSGRTGDFGKKFWALAQKSRGCQIKEWMEALECISNKMGLSLGDGRSEADFIKEIVKEVERVLATFTSEDTEDHHCQTVKLLKGLVVGCLAHQELPLVLVFTQVYYYVKFSIFFIEEIFSSCFRKGFVLKPCKEDLQINSISIPGIDLENFKNMMQQAMYELNQMLLQSLGNIDPHRDVAFENQPQDQPDSPIALPEERRVALEATKFCGHAAYWWNQTKTTRARIGKVLIHFWEKLKKKFKDTYDRTVRI
